Laboratory results published in PubChem BioAssay AID1487 (National Center for Advancing Translational Sciences (NCATS), 2009).
This is one part of the list. Shown are side measurements of this screen, not its main read-out; they come without a call. The list favours compounds with an active or inconclusive main result. Potencies come from curve fits of mixed quality, noted in brackets.

Assay: qHTS Assay for Modulators of Lamin A Splicing
Conditions: HeLa LMNA splicing GFP/RFP minigene ratio, 48 h
Outline: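 Read-out is the ratio of GFP to DsRed2 object intensity, acquired by 488 nm laser-scanning cytometry on HeLa lamin A-EGFP minigene reporter cells. Compound incubation 48 hrs at 37 °C in Opti-MEM with 2% FBS; DMSO 0.5% final.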

[1] = measured here: GFP splicing reporter channel
[2] = measured here: RFP viability control channel

Row | SMILES | AC50 [1] | AC50 [2]
1 | CC(=O)c1cccc(NC(=O)CSc2nnc3ccc(-c4ccc(F)cc4)nn23)c1 | 1 µM [rising, partial curve, poor fit] | 
2 | N#Cc1ccccc1-c1ccc2ncnc(N3CCNCC3)c2c1 | 10 µM [rising, partial curve] | 14.1 µM [rising, single point]
3 | O=C(Nc1ccc(Br)cc1F)c1cc(S(=O)(=O)NC2CCCC2)ccc1F | 35.5 µM [falling, partial curve, poor fit] | 35.5 µM [falling, partial curve, poor fit]
4 | CCOC(=O)C1=C(C)OC(N)=C(C#N)C1c1cc2cc(C)ccc2nc1N1CCCCC1 (centres undefined) |  | 35.5 µM [rising, single point]
5 | Cc1ccc(NC(=O)CCNC(=O)c2ccco2)cc1F | 35.5 µM [falling, partial curve, poor fit] | 17.8 µM [falling, partial curve, poor fit]
6 | COc1cccc2cc(C(C)=O)oc12 |  | 0.01 µM [falling, full curve, poor fit]
7 | COC(=O)c1c(NC(=O)Cc2cccs2)sc2c1CCCC2 |  | 1 µM [rising, full curve, poor fit]
8 | Cc1[nH]nc(-c2ccc(OCc3cnn(-c4ccccc4)c3)cc2O)c1Oc1ccccc1F | 25.1 µM [falling, single point] | 22.4 µM [falling, single point]
9 | CC(C)OCCCNC(=O)Cc1ccc(F)cc1 |  | 0.02 µM [falling, full curve, poor fit]
10 | COc1ccccc1C(=O)N=Nc1c(O)[nH]c2ccc([N+](=O)[O-])cc12 | 0.112 µM [rising, partial curve, poor fit] | 1.26 µM [rising, partial curve]
11 | Clc1ccc(C[n+]2cc(-c3ccccc3)n3c2CCCCC3)c(Cl)c1 |  | 6.31 µM [rising, partial curve]
12 | Nc1ncc(Br)cc1S(=O)(=O)NCCC(=O)N1CCN(c2ccccn2)CC1 | 35.5 µM [rising, single point] | 31.6 µM [rising, single point]
13 | CCCN1C2=NCCN2c2cc(C)c(C)cc21 |  | 35.5 µM [rising, single point]
14 | COc1cccc(-n2ccnc2SCC(=O)Nc2cc(OC)ccc2OC)c1 | 14.1 µM [rising, single point] | 
15 | O=C(Cc1cccs1)Nc1nc(-c2ccc(F)cc2F)cs1 |  | 31.6 µM [rising, single point]
16 | Cc1ccc(CNn2cnnc2SCc2ccc(F)cc2)cc1 |  | 17.8 µM [rising, single point]
17 | Cc1nc2ncnn2c(N2CCCC(C(=O)Nc3ccc4c(c3)CCC4)C2)c1C (centres undefined) | 22.4 µM [rising, partial curve, poor fit] | 12.6 µM [rising, partial curve]
18 | O=C(CCc1ccccc1)N(Cc1cccnc1)c1nc2c(F)cc(F)cc2s1 |  | 12.6 µM [falling, partial curve, poor fit]

Molecules above that contain a cyano group:
Row | SMILES | AC50 [1] | AC50 [2]
2 | N#Cc1ccccc1-c1ccc2ncnc(N3CCNCC3)c2c1 | 10 µM [rising, partial curve] | 14.1 µM [rising, single point]
4 | CCOC(=O)C1=C(C)OC(N)=C(C#N)C1c1cc2cc(C)ccc2nc1N1CCCCC1 (centres undefined) |  | 35.5 µM [rising, single point]

(next part)

Row | SMILES | AC50 [1] | AC50 [2]
19 | CCN(C(=O)CSc1ncn[nH]1)c1cccc2ccccc12 | 35.5 µM [rising, single point] | 31.6 µM [rising, single point]
20 | COc1ccc(-n2nnnc2-c2cccc(OC)c2)cc1 |  | 3.16 µM [rising, full curve]
21 | O=C(O)CC/C(=N/Nc1ncc(C(F)(F)F)cc1Cl)C(=O)O | 0.178 µM [rising, full curve, poor fit] | 
22 | CCOc1ccc2nc(NC(=O)CSc3nc4cccnc4n3C)sc2c1 |  | 35.5 µM [falling, single point]
23 | O=C(c1ccccc1)C1CN(Cc2ccccc2)CCC1(O)c1ccccc1 (centres undefined) | 2 µM [falling, full curve] | 11.2 µM [falling, partial curve]
24 | Cc1ccc(/C=N/NC(=O)c2n[nH]c3c2CCCC3)cc1 | 0.631 µM [falling, full curve] | 0.631 µM [falling, full curve]
25 | O=C(N/N=C/C=C\c1ccccc1[N+](=O)[O-])c1cc(-c2ccccc2)nc2ccccc12 |  | 17.8 µM [rising, partial curve]
26 | O=C(NCCc1csc(-c2ccc(Cl)cc2)n1)c1ccco1 | 2 µM [falling, full curve, poor fit] | 1.78 µM [falling, full curve, poor fit]
27 | CCN(C(=O)c1cnc(N2CCN(c3ncccn3)CC2)c2ccccc12)c1cccc(Cl)c1 | 20 µM [falling, partial curve, poor fit] | 22.4 µM [falling, partial curve]
28 | CCC(C)(C)C(=O)Nc1ncc(S(=O)(=O)c2ccc([N+](=O)[O-])cc2)s1 |  | 15.8 µM [rising, single point]
29 | COc1ccc(C)cc1NC(=O)CNC(=O)Cn1ccc2ccccc2c1=O |  | 0.00562 µM [rising, full curve, poor fit]
30 | Cn1c(SCC(N)=O)nc2c([nH]c3ccccc32)c1=O | 0.891 µM [falling, full curve, poor fit] | 
31 | Clc1ccc(-n2ncc3c(NCc4ccccn4)ncnc32)cc1 |  | 35.5 µM [rising, single point]
32 | COc1cccc(NC(=O)c2ccc(C(=O)c3ccccc3)o2)c1 | 35.5 µM [falling, single point] | 
33 | COc1ccc(CNC(=O)COc2ccc(C(=O)c3ccc(F)cc3)cc2)cc1 |  | 5.62 µM [rising, single point]
34 | O=C(c1n[nH]c(=O)c2ccccc12)N1CCN(c2ccccc2Cl)CC1 | 14.1 µM [rising, single point] | 17.8 µM [rising, single point]
35 | Cc1ccccc1OCc1nc2ccccc2c(=O)n1/N=C/c1c[nH]c2ccccc12 | 35.5 µM [falling, single point] | 35.5 µM [falling, single point]
